Experimental data: PubChem BioAssay AID2685 (National Center for Advancing Translational Sciences (NCATS), 2010)
The other results are listed elsewhere or left out. Shown are side measurements of this screen, not its main read-out; they come without a call. The list favours compounds with an active or inconclusive main result. Potencies come from curve fits of mixed quality, noted in brackets.

Test: qHTS Assay for Lipid Storage Modulators in Drosophila S3 Cells;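 for cell number change: cells counted by Cell Tracker Red CMTPX staining in the red channel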
Conditions: BODIPY lipid droplet fluorescence, 18-24 h; for cell number change: measured here: cell count max response, cells fed with added oleic acid
Method in brief: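 Laser-scanning cytometry quantifies lipid droplet accumulation (500–530 nm total intensity; droplet/cell object ratio) in oleic acid-fed (400 uM added) Drosophila S3 cells treated with a concentration series. 20 uM Triacsin C defined 100% inhibition.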

[1] = measured here: cell number channel AC50, cells fed with added oleic acid
[2] = measured here: lipid fluorescence (Fed channel) AC50, cells fed with added oleic acid

Compound | cell number change | AC50 [1] | AC50 [2]
CCOC(=O)C1(Cc2cccc(F)c2)CCN(C(=O)COC)CC1 | 10.4% | 3.26 µM [falling, single point] | 
O=C(NN1CCOCC1)c1ccc(Br)s1 | -12% | 5.17 µM [falling, single point] | 3.66 µM [falling, full curve]
O=C1C(Cl)=C(NC2CCCCC2)C(=O)N1c1ccc(Cl)cc1 | 3.81% |  | 0.651 µM [rising, full curve, poor fit]
COC(=O)c1ccc(OC(=O)CCS(=O)(=O)c2ccc(C)cc2)cc1 | -0.105% |  | 1.3 µM [falling, full curve, poor fit]
C=CCn1c(SCc2cc(=O)n3ccsc3n2)nnc1C1CCCCC1 |  | 0.731 µM [rising, partial curve] | 
O=S1(=O)CCOCCCN1Cc1ccc(Cl)cc1 | 32.7% |  | 25.9 µM [rising, single point]
COc1ccc(OC)c(Nc2c3ccccc3nc3ccccc23)c1 | -66.8% | 18.4 µM [falling, single point] | 18.4 µM [falling, single point]
COc1cc(/C=N/N=C(N)N)ccc1OCc1ccc(Cl)cc1 | -1.1% | 3.26 µM [falling, single point] | 4.11 µM [falling, single point]
Cc1cc(C(F)F)n2ncc(C(=O)NCCc3ccccc3Cl)c2n1 | 9.28% |  | 6.51 µM [rising, single point]
COc1ccc(OC)c(-n2cc3c(=O)n(C)c(=O)n(C)c3c2)c1 | 57.3% | 25.9 µM [rising, single point] | 0.517 µM [rising, single point]
Cc1ccc(/C=C/C(=O)O)cc1S(=O)(=O)NCc1cccnc1 |  |  | 29.1 µM [rising, single point]
Cc1ccc(C2CN(CCC(N)=O)C(=O)CO2)cc1 (configuration not stated) | -34.4% |  | 29.1 µM [falling, single point]
Cc1ccc2c(c1)c(N=O)c(O)n2Cc1ccc(Cl)cc1 | -68.8% | 16.4 µM [falling, single point] | 
COc1ccc(NC(=O)c2cccc3c2C(=O)N(C2CCCCC2)C3)cc1 |  |  | 0.13 µM [falling, single point]
CCOc1ccc(CCNS(=O)(=O)c2ccc3c(c2)NC(=O)CO3)cc1OCC | -16.2% |  | 29.1 µM [rising, single point]
O=C(Nc1ccc(F)cc1F)c1ccc(-n2cccn2)nc1 | -5.08% | 6.51 µM [rising, single point] | 
COc1ccc(C2CC(c3cccs3)=NN2C(=O)COC(=O)c2cncc(Br)c2)cc1OC (configuration not stated) |  | 0.58 µM [rising, single point] | 6.51 µM [rising, single point]
Cc1nc2c(ccc3c2ccc2nc(C)sc23)s1 | 10.3% |  | 0.00651 µM [rising, full curve, poor fit]
CCOc1cccc2c1OC1(CCCCC1)N1N=C(c3cccnc3)CC21 (configuration not stated) | 41.7% | 32.6 µM [rising, single point] | 0.206 µM [rising, full curve, poor fit]
COc1ccc(C(=S)N2CCCC2)cc1OC | -60.5% | 29.1 µM [falling, single point] | 29.1 µM [falling, single point]
Cc1nnc(NC(=O)C2CCN(c3nnnn3-c3ccccc3)CC2)s1 | -16.6% | 0.13 µM [falling, full curve, poor fit] | 
C[C@H](CCC(=O)O)[C@H]1CC[C@H]2[C@@H]3[C@@H](O)C[C@@H]4C[C@H](O)CC[C@]4(C)[C@H]3CC[C@]12C | -21.1% | 0.00517 µM [falling, full curve, poor fit] | 
O=C(NCCC(=O)N(Cc1ccco1)Cc1cccs1)c1ccc(Br)cc1 | -42.4% | 29.1 µM [falling, single point] | 
CCn1c(SCC#N)nc2ccccc2c1=O | 16% |  | 
CCC(C)c1ccc(OCC(=O)Nc2ccc3c(c2)C(=O)NC3=O)cc1 (configuration not stated) | -33.7% | 14.6 µM [falling, partial curve, poor fit] | 0.116 µM [falling, full curve, poor fit]
CCOC(=O)C1=C(C)N=C2SC(C(=O)OC)=CC(=O)N2C1c1ccc(F)cc1 (configuration not stated) | 31.5% | 32.6 µM [rising, single point] | 20.6 µM [rising, partial curve, poor fit]
CC(CSc1nc2ccccc2s1)Cn1c(N2CCCC2)nc2c1c(=O)[nH]c(=O)n2C (configuration not stated) |  | 0.58 µM [rising, full curve] | 0.58 µM [rising, full curve]
O=C(COc1ccc2oc3c(c2c1)CCCC3)Nc1ccccn1 | 33.6% | 16.4 µM [rising, single point] | 0.651 µM [falling, single point]

Compound | cell number change | AC50 [1] | AC50 [2]
O=C(COc1ccccc1)NCC(c1ccco1)N1CCN(c2ccccc2F)CC1 (configuration not stated) | 6.8% | 6.51 µM [rising, single point] | 2.06 µM [rising, partial curve]
CCN(CC)S(=O)(=O)c1ccc2oc(C(=O)O)c(C)c2c1 | -7.38% | 0.291 µM [falling, full curve] | 0.82 µM [falling, full curve]
O=C(Nc1ccncc1)c1cccc(S(=O)(=O)N2CCCC2)c1 | -10.8% |  | 0.0651 µM [rising, single point]
N#CCC(=O)Nc1ccc(C(=O)N2CCN(S(=O)(=O)c3ccc4ccccc4c3)CC2)cc1 | -7.09% |  | 
O=C(Nc1ccc(NC(=O)C2CC2)nc1)c1cccs1 | -6.78% |  | 0.00461 µM [falling, full curve, poor fit]
Cc1ccc2c(c1)-c1c(ssc1=S)C(C)(C)N2C(=O)CSC1=NCCS1 | -130% | 8.2 µM [falling, partial curve] | 11.6 µM [falling, partial curve]
Nc1ncnc(N2CCOCC2)c1N | 35.2% | 29.1 µM [rising, single point] | 0.116 µM [rising, full curve, poor fit]
CC(CC(=O)Nc1cccc(S(=O)(=O)N2CCCCC2)c1)c1ccccc1 (configuration not stated) | -9.21% |  | 0.259 µM [falling, partial curve, poor fit]
CCOC(=O)N1CCN(C(=O)c2ccc(Cl)c(S(=O)(=O)N3CCCC3)c2)CC1 | 0.289% |  | 0.461 µM [rising, full curve]
CC1CCC(C(C)C)C(OC(=O)COC(=O)c2ccc(N)cc2)C1 (configuration not stated) | -70.9% | 9.2 µM [falling, partial curve] | 11.6 µM [falling, partial curve]
c1ccc(Oc2nc(-c3cccnc3)nc3ccccc23)cc1 |  |  | 0.259 µM [rising, full curve]
COc1ccccc1CNC(=O)COC(=O)c1cc([N+](=O)[O-])ccc1N1CCOCC1 | -47.3% | 14.6 µM [falling, partial curve, poor fit] | 
CCCN(Cc1ccccc1)S(=O)(=O)c1ccc(N2C(=O)CCC2=O)cc1 | -13.3% |  | 0.517 µM [falling, single point]
CC1N(C)c2cc(NC(=O)c3ccco3)c(P(=O)(Nc3ccc([N+](=O)[O-])cc3)N3CCOCC3)cc2C1(C)C (configuration not stated) | -2.77% |  | 
COc1c2c(cc3oc(=O)ccc13)OC(C)(C)C=C2 | 0.956% |  | 2.31 µM [rising, partial curve]
O=C(NCc1ccccc1)C1CCC(CNS(=O)(=O)c2cccs2)CC1 (configuration not stated) | 1.8% |  | 29.1 µM [falling, single point]
Cc1ccc2cc(CN(CC3CCCO3)C(=O)Nc3ccccc3F)c3nnnn3c2c1 (configuration not stated) | 22.5% |  | 
Cn1cc(/C=C/C(=O)N2CCCC(C(=O)c3ccc(C(C)(C)C)cc3)C2)cn1 (configuration not stated) | -31.4% | 16.4 µM [falling, single point] | 18.4 µM [falling, single point]
C=C1C(=O)O[C@@H]2C[C@@H](C)[C@@H]3C=CC(=O)[C@@]3(C)[C@@H](OC(C)=O)[C@H]12 | -71.7% |  | 5.8 µM [falling, full curve, poor fit]
Cc1[nH]c2ccccc2c(=O)c1CN1CCCCC1 | -5.7% |  | 20.6 µM [falling, single point]
COc1ccc(CC(=O)OCc2cc(=O)n3cc(Br)ccc3n2)cc1OC | 14.8% | 3.66 µM [rising, single point] | 
Cc1ccc2nc(-c3ccccc3Cl)cc(C(=O)Nc3cc(C)on3)c2c1 | -68.4% | 18.4 µM [falling, partial curve] | 18.4 µM [falling, single point]
Cc1cccc(OCC(=O)O/N=C(\N)c2ccncc2)c1 | -18.4% |  | 5.62 µM [rising, single point]
O=C(CN1C(=O)c2ccccc2S1(=O)=O)NCCc1ccccc1 | 5.13% | 0.103 µM [rising, full curve, poor fit] | 
O=C(CSc1cccc[n+]1[O-])Nc1ccc([N+](=O)[O-])cc1Cl | 6.22% |  | 7.31 µM [rising, single point]
O=C(Nc1ccccc1F)Nc1cccc2ccc(O)cc12 | 0.875% |  | 32.6 µM [falling, single point]
COc1ccc(NS(=O)(=O)c2cccc(C(=O)NCC(c3ccc(OC)cc3)N3CCOCC3)c2)cc1 (configuration not stated) | -1.74% |  | 

Ordered by molecular weight (low to high): part of the list above
Compound | cell number change | AC50 [1] | AC50 [2]
COc1ccc(OC)c(-n2cc3c(=O)n(C)c(=O)n(C)c3c2)c1 | 57.3% | 25.9 µM [rising, single point] | 0.517 µM [rising, single point]
Cc1ccc2nc(-c3ccccc3Cl)cc(C(=O)Nc3cc(C)on3)c2c1 | -68.4% | 18.4 µM [falling, partial curve] | 18.4 µM [falling, single point]
CCOC(=O)C1=C(C)N=C2SC(C(=O)OC)=CC(=O)N2C1c1ccc(F)cc1 (configuration not stated) | 31.5% | 32.6 µM [rising, single point] | 20.6 µM [rising, partial curve, poor fit]
